The test in a line: qHTS Assay for Lipid Storage Modulators in Drosophila S3 Cells.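 On cell number change: cells counted by Cell Tracker Red CMTPX staining in the red channel.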 Conditions: BODIPY lipid droplet fluorescence, 18-24 h; for cell number change: measured here: cell count max response, cells fed with added oleic acid. The procedure, abridged: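 Drosophila S3 cells got compounds at several concentrations plus oleic acid (400 uM solution). Laser-scanning cytometry with 488 nm excitation read lipid droplets at 500-530 nm and cells at 575-640 nm. Percent activity was relative to 20 uM Triacsin C.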
A general note: In qHTS, concentration-response curves come from the screen itself.

Setting [1] is: measured here: cell number channel AC50, cells fed with added oleic acid.
[2] abbreviates: measured here: lipid fluorescence (Fed channel) AC50, cells fed with added oleic acid.

Some of the results follow. Shown are side measurements of this screen, not its main read-out; they come without a call. The list favours compounds with an active or inconclusive main result. The note in brackets gives the kind of curve behind each potency; many fits are weak.

A word on the AC50: it is the concentration at which the activity in the assay is half-maximal. Read a high AC50 as weaker potency.

In the case of `Cc1cccc(C(=O)NCc2nnc(SCC(=O)Nc3nnc(C)s3)n2C)c1`, the cell number change was 32.9%. Moreover, the AC50 under setting [1] was 2.91 µM [rising, full curve, poor fit]. Besides, the AC50 under setting [2] is 35.5 µM [falling, single point].
On to `Cc1occc1C(=O)NNC(=S)Nc1cccc([N+](=O)[O-])c1`, for which the cell number change was -18.6%. Further, the AC50 under setting [2] is 3.66 µM [falling, partial curve, poor fit].
As to `COCCn1nnnc1C(c1cc2c(C)cc(C)cc2[nH]c1=O)N1CCCCCC1` (centres undefined), the cell number change amounted to 14.5%. For the same compound, the AC50 under setting [2] was 0.13 µM [rising, full curve, poor fit].
Consider `Cc1ccc(NC(=O)c2ccc(Cl)c(S(=O)(=O)NCC3CCCO3)c2)c(O)c1` (centres undefined), for which the cell number change amounted to 5.52%.
In the case of `CCOC(=O)c1c(C)[nH]c(C)c1C(=O)COC(=O)CNC(=O)C1CCCCC1`, the AC50 is, setting by setting: under setting [1], 1.64 µM [rising, partial curve]; under setting [2], 0.731 µM [rising, partial curve, poor fit].
With `COc1ccc(C2CC(c3ccc([N+](=O)[O-])cc3)=NN2C(=O)c2ccccc2)cc1OC` (centres undefined), the cell number change is 0.184%. Under setting [1], the AC50 is 3.26 µM [falling, single point]. The AC50 under setting [2] was 2.59 µM [falling, full curve].
Take `COCC(=O)Nc1ccccc1C(=O)Nc1ccc(OC)cc1`: the cell number change was 0.0707%.
Turning to `CC(Nc1c([N+](=O)[O-])c(=O)oc2ccccc12)c1ccccc1` (centres undefined), the cell number change stood at 46.5%. Also, under setting [1], the AC50 was 7.31 µM [rising, partial curve]. Moreover, under setting [2], the AC50 was 10.3 µM [rising, partial curve].
With `Cc1ccc(CNC(=O)CCS(=O)(=O)c2cccc3nsnc23)cc1`, the cell number change turned out to be 6.22%.
With `CCOC(=O)c1cnc2ccccc2c1Nc1ccc(C(=O)O)cc1`, the cell number change was -31.6%. Besides, the AC50 under setting [1] is 7.31 µM [falling, partial curve]. Also, under setting [2], the AC50 is 4.11 µM [falling, partial curve].
With `Cc1ccc(S(=O)(=O)N2CCN(C(=O)n3ccnc3)CC2)cc1`, the cell number change is -11.2%.
As to `Nc1cc(-c2ccccc2)ccc1O`, under setting [2], the AC50 is 5.17 µM [falling, single point].
For the compound `Cc1nnc2ccc(-c3cccc(NC(=O)c4ccc(Br)o4)c3)nn12`, the cell number change is -16.3%. Besides, the AC50 under setting [2] was 1.3 µM [falling, full curve, poor fit].
On to `COc1ccccc1C(=O)NCC(=O)Nc1ccccc1`, for which the cell number change was 14.5%. For the same compound, the AC50 under setting [2] was 16.4 µM [rising, partial curve].
Regarding `Cc1noc(C)c1COC(=O)COc1ccc(C#N)cc1`, the cell number change was -12.8%.
Regarding `COc1ccc(Cl)cc1NC(=O)NCc1ccco1`, the cell number change turned out to be 14%. In addition, under setting [2], the AC50 was 0.00411 µM [rising, full curve, poor fit].
Take `CCNC(=S)Nc1cc(Cl)ccc1Oc1ccccc1`: the cell number change worked out at 44.3%. Also, the AC50 under setting [1] was 11.6 µM [rising, partial curve]. Under setting [2], the AC50 is 3.26 µM [rising, partial curve, poor fit].
With `CCCCCC(O)c1cccc(OCc2ccc3ccccc3n2)c1` (centres undefined), the cell number change was -1.46%. Further, under setting [2], the AC50 was 1.03 µM [rising, full curve].
On to `N[C@@H](Cc1ccccc1)C(=O)N1CCC(C(=O)N[C@@H](CCC(=O)O)C(=O)O)CC1`, for which the cell number change is 32.6%. In addition, the AC50 under setting [1] is 3.66 µM [rising, full curve]. Also, under setting [2], the AC50 was 29.1 µM [rising, partial curve, poor fit].
As to `Oc1cccc(C=NCc2ccccc2)c1O`, the cell number change was -16.2%. For the same compound, the AC50 under setting [2] was 3.26 µM [falling, partial curve].
With `CCNS(=O)(=O)c1ccc(C(=O)OCC(=O)N2CCCc3ccccc32)cc1`, the cell number change is -18.7%. The AC50 under setting [2] was 0.731 µM [rising, partial curve, poor fit].
For `CCOc1ccc(C(=O)CCC(=O)NCC(=O)Nc2c(C)cccc2C)cc1`, the cell number change came to 18.6%. Besides, under setting [2], the AC50 was 0.82 µM [rising, single point].
For the compound `Cc1ccc(COC(=O)CN2C(=O)NC3(CCCC3)C2=O)cc1`, the cell number change worked out at 5.91%. In addition, the AC50 under setting [2] is 11.6 µM [rising, partial curve].
With `O=C1COc2ccc(C(=O)COC(=O)CNC(=O)c3ccco3)cc2N1`, the cell number change is -49%. For the same compound, the half-maximal activity concentration (AC50) under setting [1] is 0.92 µM [falling, full curve]. For the same compound, the AC50 under setting [2] was 0.0058 µM [falling, full curve].
As for `C[C@H](NC(=O)c1ccc2c(c1)OCO2)c1nnc2ccccn12`, the cell number change was determined as 12.6%.
Consider `CCCn1c(N)c(N(CCOC)C(=O)c2cc(-c3ccco3)nc3ccccc23)c(=O)[nH]c1=O`, for which the cell number change was -4.4%. Also, the AC50 under setting [2] is 0.164 µM [rising, full curve, poor fit].
As to `CC(=O)N1C(=O)NC(c2ccccc2)=C([N+](=O)[O-])C1c1ccccc1` (centres undefined), the cell number change is -40.7%. Also, under setting [1], the AC50 was 14.6 µM [falling, partial curve, poor fit].
As for `C=CCn1nnc2sc3c(c2c1=O)CCC(C)C3` (centres undefined), the cell number change is -7.82%. For the same compound, the AC50 under setting [2] is 0.326 µM [rising, full curve, poor fit].
Regarding `COc1cc2ccccc2cc1C(=O)Nc1ccccc1N1CCN(S(C)(=O)=O)CC1`, the cell number change was found to be 6.18%. Also, the AC50 under setting [1] is 0.411 µM [rising, full curve, poor fit]. Moreover, the concentration at half-maximal activity (AC50) under setting [2] was 1.64 µM [rising, partial curve].
As for `O=C(Nc1ccc(SC(F)F)cc1)c1cccc2nc3ccccc3nc12`, the cell number change was -21.5%.
For `Cc1ccccc1NC(=O)c1ccc(OCC(=O)Nc2ccccc2F)cc1`, the cell number change worked out at 5.51%. Also, under setting [1], the AC50 is 6.51 µM [falling, single point]. Also, the AC50 under setting [2] is 6.51 µM [falling, single point].
In the case of `COc1ccc(Nc2ccc(C(F)(F)F)cc2[N+](=O)[O-])cn1`, the cell number change was determined as 11.7%.
For the compound `CN(CC(=O)Nc1ccccc1Cl)CC(=O)Nc1ccccc1[N+](=O)[O-]`, the cell number change was 50.7%. Moreover, the AC50 under setting [1] is 0.82 µM [rising, full curve, poor fit]. In addition, the AC50 under setting [2] is 18.4 µM [rising, partial curve].
For the compound `O=S(=O)(c1ccc(Cl)cc1)N1CCN(Cc2ccncc2)CC1`, the cell number change is -10.9%. Moreover, the AC50 under setting [2] is 6.51 µM [falling, single point].
In the case of `O=c1c([N+](=O)[O-])c(N2CCOCC2)c2ccccc2n1Cc1ccccc1`, the cell number change is -2.68%. Moreover, the AC50 under setting [2] was 3.26 µM [falling, single point].
As to `CNC(=O)N1c2ccccc2NC(=O)CC1C` (centres undefined), the cell number change was -9.06%. Also, under setting [2], the AC50 is 0.651 µM [falling, single point].
Take `N#CCCN1CCNCC1`: the cell number change came out at 3.06%. Besides, the AC50 under setting [2] was 25.9 µM [falling, partial curve].
Turning to `O=C(CN1CCN(c2ccc(F)cc2)CC1)NCC1CCCO1` (centres undefined), the cell number change turned out to be 0.408%. Moreover, the AC50 under setting [2] was 25.9 µM [falling, single point].
For `O=C(CCCc1ccccc1)Nc1ccccc1C(F)(F)F`, the cell number change is -1.82%. The AC50 under setting [2] was 0.13 µM [rising, full curve, poor fit].
Regarding `O=C(O)c1cccc(N2C(=O)c3cccnc3C2=O)c1`, the cell number change is -3.86%.
Same read-out and setting: the result for `O=C(CC1C(=O)NCCN1C(=O)Nc1ccccc1)Nc1cccc(C(F)(F)F)c1` (centres undefined) reads -29.6%.
Consider `CCN(c1ccc(NC(=O)CCc2nc3sc4c(c3c(=O)[nH]2)CCCC4)cc1)C(C)C`, for which the cell number change is -12%. Also, the AC50 under setting [1] is 0.366 µM [falling, partial curve, poor fit].
Turning to `COc1ccccc1-n1cnc2cc(NCc3ccccc3O)ccc21`, the cell number change is 27.1%. In addition, the AC50 under setting [1] was 2.91 µM [rising, partial curve]. Besides, the AC50 under setting [2] was 4.11 µM [rising, full curve].
On to `CCOc1cc(C(=S)N2CCOCC2)ccc1OS(=O)(=O)c1ccccc1[N+](=O)[O-]`, for which the cell number change was -21.4%.
`CN(C)CC1CCCCC1OC(=O)/C=C/c1ccc(Cl)cc1Cl` (centres undefined): the cell number change is 10.8%.
Take `c1ccc2c3c([nH]c2c1)C(C1CCCCC1)N(Cc1ncc[nH]1)CC3` (centres undefined): the cell number change is -19.2%. Moreover, the AC50 under setting [2] was 5.17 µM [falling, partial curve].
On to `COC(=O)Cc1ccc(OC(=O)CCS(=O)(=O)c2ccc(C)cc2)cc1`, for which the cell number change was -40.4%. In addition, under setting [1], the AC50 is 2.06 µM [falling, full curve]. Under setting [2], the AC50 is 29.1 µM [falling, single point].
Turning to `COc1ccc(OC)c(CCNC(=O)CCc2cn(C)c3ccccc23)c1`, the AC50 under setting [2] is 6.51 µM [rising, single point].
Turning to `COc1ccc(Cn2c(=O)oc3ccccc32)cc1F`, the cell number change amounted to 30.3%. In addition, the AC50 under setting [1] was 29.1 µM [rising, single point].
On to `O=C(CCc1ccccn1)N1CCCC(N2CCN(c3cccc(C(F)(F)F)c3)CC2)C1` (centres undefined), for which the cell number change is -15.8%. For the same compound, under setting [2], the AC50 was 29.1 µM [rising, single point].
On to `Cc1ccc(-n2c(-c3nn(C)cc3Cl)n[nH]c2=S)cc1`, for which the cell number change is -9.37%. The AC50 under setting [2] is 2.31 µM [rising, partial curve, poor fit].
Regarding `CC(=O)c1ccc(NC(=O)CCc2nnc3ccc(N4CCCC4)nn23)cc1`, the cell number change came out at 0.85%. In addition, under setting [2], the AC50 is 29.1 µM [rising, single point].
With `CC(CCc1ccccc1)NS(=O)(=O)c1ccccc1F` (centres undefined), the cell number change came to 2.08%. The AC50 under setting [2] was 7.31 µM [falling, partial curve].
Regarding `COC(CN(C)C(=O)c1ccc(CS(=O)(=O)c2ccccc2C)o1)OC`, the cell number change was 14.4%. Moreover, the AC50 under setting [2] is 29.1 µM [falling, single point].
With `Cc1cc(C)c(NC(=O)CSc2nc3ccccc3c(=O)n2CCCN2CCOCC2)c(C)c1`, the cell number change was found to be 3.03%. For the same compound, the AC50 under setting [2] was 20.6 µM [rising, partial curve].
In the case of `COc1ccc(/C=c2\s/c(=C/C(=O)c3ccc(C)cc3)[nH]c2=O)c(OC)c1`, the cell number change amounted to 12.4%. Under setting [2], the half-maximal activity concentration (AC50) is 16.4 µM [falling, single point].
Turning to `COc1cc(C(=O)Nc2ccc(S(=O)(=O)Nc3onc(C)c3C)cc2)cc(OC)c1OC`, the cell number change was -36.1%. Also, under setting [1], the AC50 was 29.1 µM [falling, single point].
As for `CC(=O)Cn1ncc(N(C)Cc2ccccc2)c(Cl)c1=O`, the cell number change came out at 18.4%.
On the same count and under the same terms, the result for `Cc1ccccc1NC(=O)CSc1nc(N)c2c3c(sc2n1)CSC(C)(C)C3` reads -16.5%.
Take `Cn1nc(Oc2ncc(C(F)(F)F)cc2Cl)cc1C(F)(F)F`: the cell number change was -41.9%. Under setting [1], the AC50 is 9.2 µM [falling, partial curve, poor fit]. In addition, the AC50 under setting [2] was 0.58 µM [falling, full curve].
With `Clc1ccc(-n2cc(-c3ccc(Br)cc3)[n+]3c2CCCCC3)cc1`, the cell number change was -4.91%. The AC50 under setting [1] is 0.164 µM [rising, full curve, poor fit].

Values taken from PubChem BioAssay AID2685 (National Center for Advancing Translational Sciences (NCATS), 2010).
